From the supplement of paper PMC10849652
The list shows a part of the results.

Sequences of proteins named here, by UniProt entry; tags and fusion partners are left off. A change or cut given only in a name is not applied to a line headed by its entry.
UniProt Q4G176: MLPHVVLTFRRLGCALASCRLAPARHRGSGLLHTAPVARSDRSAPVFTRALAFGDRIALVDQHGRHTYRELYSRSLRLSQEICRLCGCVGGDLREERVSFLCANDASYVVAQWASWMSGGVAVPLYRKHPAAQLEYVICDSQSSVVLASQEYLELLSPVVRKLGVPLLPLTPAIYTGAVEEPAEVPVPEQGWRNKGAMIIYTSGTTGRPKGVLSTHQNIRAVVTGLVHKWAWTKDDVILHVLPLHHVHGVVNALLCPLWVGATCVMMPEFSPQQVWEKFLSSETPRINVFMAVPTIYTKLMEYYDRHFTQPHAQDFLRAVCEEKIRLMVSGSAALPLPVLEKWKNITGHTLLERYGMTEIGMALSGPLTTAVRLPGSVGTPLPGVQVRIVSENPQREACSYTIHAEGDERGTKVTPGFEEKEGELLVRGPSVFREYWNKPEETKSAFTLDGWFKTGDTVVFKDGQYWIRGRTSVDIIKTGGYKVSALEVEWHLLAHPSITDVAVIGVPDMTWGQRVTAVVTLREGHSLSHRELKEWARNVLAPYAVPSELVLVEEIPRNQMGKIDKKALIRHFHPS
UniProt P49748: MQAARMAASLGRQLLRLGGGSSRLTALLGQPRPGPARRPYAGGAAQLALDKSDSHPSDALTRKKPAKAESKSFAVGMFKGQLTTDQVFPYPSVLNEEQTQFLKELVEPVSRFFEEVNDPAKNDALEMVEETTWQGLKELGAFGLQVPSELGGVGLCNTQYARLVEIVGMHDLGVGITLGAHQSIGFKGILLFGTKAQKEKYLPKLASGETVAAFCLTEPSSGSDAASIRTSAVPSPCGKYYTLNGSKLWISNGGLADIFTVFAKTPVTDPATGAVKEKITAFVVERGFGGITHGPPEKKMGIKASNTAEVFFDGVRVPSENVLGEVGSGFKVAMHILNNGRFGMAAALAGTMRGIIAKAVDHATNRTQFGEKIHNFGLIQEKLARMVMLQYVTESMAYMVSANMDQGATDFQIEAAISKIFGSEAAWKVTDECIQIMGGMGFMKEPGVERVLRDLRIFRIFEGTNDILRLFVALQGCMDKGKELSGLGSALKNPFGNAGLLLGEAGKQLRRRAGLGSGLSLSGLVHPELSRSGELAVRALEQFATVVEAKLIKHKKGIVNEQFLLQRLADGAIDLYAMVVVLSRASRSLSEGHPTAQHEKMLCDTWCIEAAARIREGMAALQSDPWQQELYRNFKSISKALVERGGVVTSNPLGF
UniProt P11117: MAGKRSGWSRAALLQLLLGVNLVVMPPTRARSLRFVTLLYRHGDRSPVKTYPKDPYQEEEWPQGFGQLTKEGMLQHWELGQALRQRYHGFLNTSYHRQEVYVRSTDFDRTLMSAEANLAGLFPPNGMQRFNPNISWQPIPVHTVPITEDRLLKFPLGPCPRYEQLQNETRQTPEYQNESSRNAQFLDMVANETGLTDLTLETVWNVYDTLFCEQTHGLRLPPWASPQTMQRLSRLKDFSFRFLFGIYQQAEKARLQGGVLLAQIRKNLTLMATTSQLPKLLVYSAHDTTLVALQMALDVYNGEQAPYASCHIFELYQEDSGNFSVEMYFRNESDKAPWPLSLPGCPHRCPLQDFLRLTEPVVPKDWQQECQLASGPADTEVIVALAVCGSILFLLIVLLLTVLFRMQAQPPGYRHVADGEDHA
UniProt Q9Y312: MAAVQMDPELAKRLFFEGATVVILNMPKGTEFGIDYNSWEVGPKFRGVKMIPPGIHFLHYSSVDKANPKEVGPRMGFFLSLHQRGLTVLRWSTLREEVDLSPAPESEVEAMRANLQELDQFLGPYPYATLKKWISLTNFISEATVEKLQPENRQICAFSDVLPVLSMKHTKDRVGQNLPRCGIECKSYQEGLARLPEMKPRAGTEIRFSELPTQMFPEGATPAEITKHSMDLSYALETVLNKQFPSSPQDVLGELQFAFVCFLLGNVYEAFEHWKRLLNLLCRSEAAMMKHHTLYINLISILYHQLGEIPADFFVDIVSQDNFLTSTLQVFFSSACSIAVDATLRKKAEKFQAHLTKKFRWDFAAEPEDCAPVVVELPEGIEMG
UniProt P24666: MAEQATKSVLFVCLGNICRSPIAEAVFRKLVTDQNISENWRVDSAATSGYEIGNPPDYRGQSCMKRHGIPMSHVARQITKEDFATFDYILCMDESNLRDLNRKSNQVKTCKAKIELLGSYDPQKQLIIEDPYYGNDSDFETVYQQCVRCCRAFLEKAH
UniProt Q9BTE6: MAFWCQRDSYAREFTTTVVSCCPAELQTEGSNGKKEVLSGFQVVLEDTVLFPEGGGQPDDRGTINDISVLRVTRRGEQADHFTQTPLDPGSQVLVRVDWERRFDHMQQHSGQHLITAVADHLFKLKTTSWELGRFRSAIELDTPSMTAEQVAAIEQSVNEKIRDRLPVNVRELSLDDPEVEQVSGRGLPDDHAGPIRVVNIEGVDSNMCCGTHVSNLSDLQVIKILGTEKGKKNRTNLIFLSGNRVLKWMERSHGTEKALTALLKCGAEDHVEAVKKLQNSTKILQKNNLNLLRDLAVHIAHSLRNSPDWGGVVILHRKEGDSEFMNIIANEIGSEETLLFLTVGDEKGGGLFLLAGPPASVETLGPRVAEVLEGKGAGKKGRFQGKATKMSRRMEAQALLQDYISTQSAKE
UniProt P14621: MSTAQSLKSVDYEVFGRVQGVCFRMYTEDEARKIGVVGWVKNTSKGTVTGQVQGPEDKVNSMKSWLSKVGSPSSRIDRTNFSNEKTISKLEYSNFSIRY
UniProt Q2M2I8: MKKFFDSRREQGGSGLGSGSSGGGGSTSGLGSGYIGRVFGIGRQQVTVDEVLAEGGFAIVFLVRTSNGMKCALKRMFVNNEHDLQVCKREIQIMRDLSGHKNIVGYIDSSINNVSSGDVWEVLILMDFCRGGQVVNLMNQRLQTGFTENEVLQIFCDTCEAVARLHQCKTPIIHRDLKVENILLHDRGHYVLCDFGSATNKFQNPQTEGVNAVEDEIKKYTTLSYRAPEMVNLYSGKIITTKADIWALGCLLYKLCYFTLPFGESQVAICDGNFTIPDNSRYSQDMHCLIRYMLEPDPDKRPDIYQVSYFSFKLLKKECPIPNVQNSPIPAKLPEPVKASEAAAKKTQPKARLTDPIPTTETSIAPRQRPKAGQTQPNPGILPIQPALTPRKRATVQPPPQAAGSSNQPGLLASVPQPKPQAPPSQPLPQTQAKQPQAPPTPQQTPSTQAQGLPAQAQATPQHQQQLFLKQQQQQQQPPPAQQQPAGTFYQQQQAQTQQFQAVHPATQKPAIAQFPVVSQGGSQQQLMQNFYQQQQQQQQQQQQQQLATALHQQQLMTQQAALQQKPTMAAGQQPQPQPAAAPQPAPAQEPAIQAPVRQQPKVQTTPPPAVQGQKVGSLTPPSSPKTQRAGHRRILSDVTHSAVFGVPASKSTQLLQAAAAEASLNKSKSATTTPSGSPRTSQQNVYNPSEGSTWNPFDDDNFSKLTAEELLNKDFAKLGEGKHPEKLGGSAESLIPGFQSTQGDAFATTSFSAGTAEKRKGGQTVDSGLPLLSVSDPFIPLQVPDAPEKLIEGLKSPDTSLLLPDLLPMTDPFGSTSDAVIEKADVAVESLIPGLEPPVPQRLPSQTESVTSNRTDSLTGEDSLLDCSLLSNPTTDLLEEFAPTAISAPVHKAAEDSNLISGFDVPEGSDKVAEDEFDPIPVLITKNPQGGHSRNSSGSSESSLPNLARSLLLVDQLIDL
UniProt Q5JTZ9, whole entry, looked up: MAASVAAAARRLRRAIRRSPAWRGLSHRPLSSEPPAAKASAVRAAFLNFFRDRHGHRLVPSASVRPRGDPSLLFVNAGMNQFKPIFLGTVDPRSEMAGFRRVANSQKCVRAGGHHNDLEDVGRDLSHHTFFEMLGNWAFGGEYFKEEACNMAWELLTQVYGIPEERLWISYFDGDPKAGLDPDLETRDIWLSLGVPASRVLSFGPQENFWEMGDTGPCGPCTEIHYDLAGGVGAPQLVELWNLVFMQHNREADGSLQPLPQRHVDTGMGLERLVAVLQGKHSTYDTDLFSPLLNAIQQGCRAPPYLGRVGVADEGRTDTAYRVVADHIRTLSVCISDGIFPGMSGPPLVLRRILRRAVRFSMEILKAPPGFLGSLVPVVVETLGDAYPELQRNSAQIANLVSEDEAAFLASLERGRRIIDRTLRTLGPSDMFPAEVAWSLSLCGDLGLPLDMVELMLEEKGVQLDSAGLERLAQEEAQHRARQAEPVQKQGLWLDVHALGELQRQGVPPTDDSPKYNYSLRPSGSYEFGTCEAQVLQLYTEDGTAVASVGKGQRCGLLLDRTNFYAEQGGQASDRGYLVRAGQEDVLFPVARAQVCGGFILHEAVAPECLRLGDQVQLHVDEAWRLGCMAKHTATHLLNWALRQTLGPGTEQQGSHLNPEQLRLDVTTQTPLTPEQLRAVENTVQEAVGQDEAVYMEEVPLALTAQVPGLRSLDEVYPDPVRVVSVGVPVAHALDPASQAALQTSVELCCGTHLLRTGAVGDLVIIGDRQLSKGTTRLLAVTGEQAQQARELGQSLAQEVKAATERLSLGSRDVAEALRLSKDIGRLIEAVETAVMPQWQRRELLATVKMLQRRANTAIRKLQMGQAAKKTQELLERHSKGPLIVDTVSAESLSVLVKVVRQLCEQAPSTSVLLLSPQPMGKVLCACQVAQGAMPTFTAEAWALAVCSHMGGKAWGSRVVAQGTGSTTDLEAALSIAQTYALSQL
UniProt A8K2U0: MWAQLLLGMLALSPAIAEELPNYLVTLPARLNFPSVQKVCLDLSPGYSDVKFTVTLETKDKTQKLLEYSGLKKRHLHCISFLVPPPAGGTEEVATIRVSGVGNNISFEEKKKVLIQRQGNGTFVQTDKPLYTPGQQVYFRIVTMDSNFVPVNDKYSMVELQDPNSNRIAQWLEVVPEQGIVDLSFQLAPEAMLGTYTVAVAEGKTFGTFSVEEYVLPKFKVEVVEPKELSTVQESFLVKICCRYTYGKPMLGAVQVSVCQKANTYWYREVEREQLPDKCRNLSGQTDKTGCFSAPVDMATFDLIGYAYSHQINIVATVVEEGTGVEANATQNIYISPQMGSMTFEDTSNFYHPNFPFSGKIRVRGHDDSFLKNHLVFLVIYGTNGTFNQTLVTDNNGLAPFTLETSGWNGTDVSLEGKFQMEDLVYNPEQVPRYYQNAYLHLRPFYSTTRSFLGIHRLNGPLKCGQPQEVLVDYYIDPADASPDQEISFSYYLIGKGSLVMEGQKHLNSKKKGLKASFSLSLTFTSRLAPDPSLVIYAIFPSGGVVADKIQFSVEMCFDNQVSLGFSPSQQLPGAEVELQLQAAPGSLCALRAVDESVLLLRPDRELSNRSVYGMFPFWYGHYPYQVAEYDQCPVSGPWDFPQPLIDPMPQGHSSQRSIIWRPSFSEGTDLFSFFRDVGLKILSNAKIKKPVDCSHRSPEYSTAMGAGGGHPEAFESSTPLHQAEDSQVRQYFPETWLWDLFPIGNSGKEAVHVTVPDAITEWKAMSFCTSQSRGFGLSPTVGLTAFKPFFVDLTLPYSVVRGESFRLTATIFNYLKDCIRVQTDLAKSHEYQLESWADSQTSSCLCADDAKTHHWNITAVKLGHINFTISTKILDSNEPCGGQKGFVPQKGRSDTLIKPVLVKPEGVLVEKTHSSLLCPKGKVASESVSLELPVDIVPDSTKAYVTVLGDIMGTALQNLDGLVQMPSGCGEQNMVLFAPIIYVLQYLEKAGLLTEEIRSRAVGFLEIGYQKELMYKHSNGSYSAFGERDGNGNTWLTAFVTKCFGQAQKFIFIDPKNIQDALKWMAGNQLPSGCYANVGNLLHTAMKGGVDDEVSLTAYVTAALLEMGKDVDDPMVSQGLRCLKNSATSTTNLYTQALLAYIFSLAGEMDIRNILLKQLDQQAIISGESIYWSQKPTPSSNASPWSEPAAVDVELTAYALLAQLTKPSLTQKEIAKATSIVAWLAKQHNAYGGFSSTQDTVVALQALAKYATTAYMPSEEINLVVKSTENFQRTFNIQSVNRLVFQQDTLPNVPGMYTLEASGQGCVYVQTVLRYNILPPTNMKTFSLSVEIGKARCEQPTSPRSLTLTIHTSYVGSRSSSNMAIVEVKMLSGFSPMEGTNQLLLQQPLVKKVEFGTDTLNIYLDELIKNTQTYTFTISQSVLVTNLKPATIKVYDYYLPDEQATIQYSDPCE
UniProt Q6UWZ7: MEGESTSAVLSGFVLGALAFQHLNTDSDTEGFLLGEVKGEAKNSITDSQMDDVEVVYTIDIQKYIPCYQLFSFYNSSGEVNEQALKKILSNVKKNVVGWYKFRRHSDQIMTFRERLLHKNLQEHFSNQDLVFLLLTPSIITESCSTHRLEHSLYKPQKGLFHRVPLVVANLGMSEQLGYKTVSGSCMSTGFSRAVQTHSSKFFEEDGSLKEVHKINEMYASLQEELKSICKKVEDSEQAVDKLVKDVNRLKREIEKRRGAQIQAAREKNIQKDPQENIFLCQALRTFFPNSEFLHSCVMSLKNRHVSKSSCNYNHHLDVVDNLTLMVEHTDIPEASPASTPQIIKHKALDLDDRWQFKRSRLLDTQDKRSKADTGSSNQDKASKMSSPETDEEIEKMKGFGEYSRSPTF

Compound: CC[C@H](C)N1C=C(C2=C(C=C(C=C21)C3=CN=C(C=C3)N4CCNCC4)C(=O)NCC5=C(C=C(NC5=O)C)C)C
Assay: log2 fold change, soluble protein after heating vs DMSO (PISA); higher = thermal stabilisation; K562 cells, 10 uM, 30 min; active = over 0.2 and 3.5 SD of the protein, either way, in both replicates (recomputed)
In short: (§1)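 K562 cells (2×10^6 cells/mL) were treated with 10 μM compound for 30 min, and aliquots were heated for 3 min over 48°C-58°C. Pooled aliquots were extracted in PBS with 0.5% NP-40 at 4°C, and the supernatant after 21,000xg for 90 min was measured by TMTpro 16plex LC-MS/MS with channel sums equalised. Reported thermal stability, relative to control samples and from duplicates, is a log2 fold change.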

log2 fold change, inactive:
ACSF3 (UniProt Q4G176) 0.039
ACAT1, A0A5F9ZHJ0 0.018
AAMP (UniProt Q13685) -0.016
ACADVL isoform 3 (UniProt P49748) -0.007
ACSL1 (UniProt P33121) 0.012
ACOX3 (UniProt O15254) -0.069
AAGAB (UniProt Q6PD74) 0.058
ACP2 (UniProt P11117) -0.068
ABHD6 (UniProt Q9BV23) -0.079
ACACB (UniProt O00763) 0.083
AAR2 (UniProt Q9Y312) -0.03
ACP1 (UniProt P24666) -0.001
ACO2 (UniProt Q99798) 0.022
ACIN1 (UniProt Q9UKV3) -0.012
AARSD1 (UniProt Q9BTE6) -0.121
ABHD11 (UniProt Q8NFV4) -0.003
ABHD16A (UniProt O95870) -0.01
ACYP2 (UniProt P14621) -0.027
ACADM isoform 2 (UniProt P11310) -0.015
ABITRAM (UniProt Q9NX38) 0.088
AAK1 (UniProt Q2M2I8) -0.013
AARSD1 isoform 3 (UniProt Q9BTE6) 0.019
ACTBL2 (UniProt Q562R1) -0.133
ACTR1B (UniProt P42025) 0.01
AARS2 (UniProt Q5JTZ9) 0.023
A2ML1 (UniProt A8K2U0) 0.215
ACSL5 isoform 3 (UniProt Q9ULC5) 0.029
ACSS1 (UniProt Q9NUB1) 0.074
ACAP2 (UniProt Q15057) 0.066
ACAA2 (UniProt K7ER88) -0.134

Compound: CC[C@H](C)[C@@H](C(=O)N[C@@H]([C@@H](C)O)C(=O)N[C@@H](CC(C)C)C(=O)[C@]1(CO1)C)NC(=O)[C@H]([C@@H](C)CC)N(C)C(=O)C [epoxomicin]
Assay: as above
In short: as §1

log2 fold change, inactive:
ACSF3 (UniProt Q4G176) 0.152
ACAT1, A0A5F9ZHJ0 0.121
AAMP (UniProt Q13685) -0.017
ACADVL isoform 3 (UniProt P49748) 0.025
ACSL1 (UniProt P33121) 0.018
ACOX3 (UniProt O15254) -0.113
ABCA3 (UniProt Q99758) 0
ACVR1 (UniProt Q04771) 0.16
AAGAB (UniProt Q6PD74) 0.006
ACP2 (UniProt P11117) 0.019
ACACB (UniProt O00763) -0.1
AAR2 (UniProt Q9Y312) 0.037
ACP1 (UniProt P24666) 0.03
ACO2 (UniProt Q99798) 0.046
ACIN1 (UniProt Q9UKV3) -0.048
ADAMTS13 (UniProt Q76LX8) -0.327
ABHD11 (UniProt Q8NFV4) 0.272
ACTN4 (UniProt K7EJH8) -0.029
ABHD16A (UniProt O95870) -0.008
ACADM isoform 2 (UniProt P11310) 0.015
ABITRAM (UniProt Q9NX38) 0.055
AAK1 (UniProt Q2M2I8) 0.031
AARSD1 isoform 3 (UniProt Q9BTE6) 0.083
ACTBL2 (UniProt Q562R1) -0.1
ACTG1 (UniProt K7EM38) -0.443
ACTR1B (UniProt P42025) -0.008
AARS2 (UniProt Q5JTZ9) 0.023
ACSL5 isoform 3 (UniProt Q9ULC5) 0.005
ABL1 isoform 2 (UniProt P00519) 0.003
ABRAXAS1 (UniProt Q6UWZ7) 0.012
ACAP2 (UniProt Q15057) -0.002
ACAA2 (UniProt K7ER88) -0.221
